Experiment: general procedure: Fmoc solid-phase peptide synthesis; PAL Peg-PS resin (amide resin); HCTU
Conditions: whole synthesis, 215 nm

## [D-Ala1]PYY
  purity (crude or final not stated): 95.2%

## [Cys2,D-Cys27]PYY
  purity (crude or final not stated): 98.3%

## [Cys2,D-Cys27]PYY2-36
  purity (crude or final not stated): 90.0%

## [Cys2,N-{N′-(21-amino-4,7,10,13,16,19-hexaoxaheneicosanoyl)}-gammaglutamoyl-Lys13,D-Cys27]PYY
HPLC, Vydac C18 Peptide-Protein column, 0.05% TFA water/MeCN
  purity (crude or final not stated): 85.0%

## [Cys2,Ile3,D-Cys27,Val31]NPY
  purity (crude or final not stated): 97.8%

## Lys-Lys-Lys-Lys-Lys-Lys-PYY25-36
  purity (crude or final not stated): 91.9%

## [Cys2,N-(8-(8-gammaglutamoylamino-octanoylamino)-octanoyl)-Lys13,D-Cys27]PYY
  purity (crude or final not stated): 90.0%

## Fluorescein-[Cys2,N-{(Ala-Arg-Arg-Arg-Ala-Ala-Arg-Ala)3}-Lys13,D-Cys27]PYY
One disulfide bridge
  purity (crude or final not stated): 60.0%

Reference: patent US20090186811A1 (priority 2004, published 2009)
